{"source": "paper PMC10849766", "binders": {"B1": {"name": "β-catenin, P35222 1-781 (protein)", "chain": "MATQADLMELDMAMEPDRKAAVSHWQQQSYLDSGIHSGATTTAPSLSGKGNPEEEDVDTSQVLYEWEQGFSQSFTQEQVADIDGQYAMTRAQRVRAAMFPETLDEGMQIPSTQFDAAHPTNVQRLAEPSQMLKHAVVNLINYQDDAELATRAIPELTKLLNDEDQVVVNKAAVMVHQLSKKEASRHAIMRSPQMVSAIVRTMQNTNDVETARCTAGTLHNLSHHREGLLAIFKSGGIPALVKMLGSPVDSVLFYAITTLHNLLLHQEGAKMAVRLAGGLQKMVALLNKTNVKFLAITTDCLQILAYGNQESKLIILASGGPQALVNIMRTYTYEKLLWTTSRVLKVLSVCSSNKPAIVEAGGMQALGLHLTDPSQRLVQNCLWTLRNLSDAATKQEGMEGLLGTLVQLLGSDDINVVTCAAGILSNLTCNNYKNKMMVCQVGGIEALVRTVLRAGDREDITEPAICALRHLTSRHQEAEMAQNAVRLHYGLPVVVKLLHPPSHWPLIKATVGLIRNLALCPANHAPLREQGAIPRLVQLLVRAHQDTQRRTSMGGTQQQFVEGVRMEEIVEGCTGALHILARDVHNRIVIRGLNTIPLFVQLLYSPIENIQRVAAGVLCELAQDKEAAEAIEAEGATAPLTELLHSRNEGVATYAAAVLFRMSEDKPQDYKKRLSVELTSSLFRTEPMAWNETADLGLDIGAQGEPLGYRQDDPSYRSFHSGGYGQDALGMDPMMEHEMGGHHPGADYPVDGLPDLGHAQDLMDGLPPGDSNQLAWFDTDL"}}, "biological_target": "T1, Vascular endothelial (VE)-cadherin (human (endogenous in HBMECs)), P33151", "T1 chain": "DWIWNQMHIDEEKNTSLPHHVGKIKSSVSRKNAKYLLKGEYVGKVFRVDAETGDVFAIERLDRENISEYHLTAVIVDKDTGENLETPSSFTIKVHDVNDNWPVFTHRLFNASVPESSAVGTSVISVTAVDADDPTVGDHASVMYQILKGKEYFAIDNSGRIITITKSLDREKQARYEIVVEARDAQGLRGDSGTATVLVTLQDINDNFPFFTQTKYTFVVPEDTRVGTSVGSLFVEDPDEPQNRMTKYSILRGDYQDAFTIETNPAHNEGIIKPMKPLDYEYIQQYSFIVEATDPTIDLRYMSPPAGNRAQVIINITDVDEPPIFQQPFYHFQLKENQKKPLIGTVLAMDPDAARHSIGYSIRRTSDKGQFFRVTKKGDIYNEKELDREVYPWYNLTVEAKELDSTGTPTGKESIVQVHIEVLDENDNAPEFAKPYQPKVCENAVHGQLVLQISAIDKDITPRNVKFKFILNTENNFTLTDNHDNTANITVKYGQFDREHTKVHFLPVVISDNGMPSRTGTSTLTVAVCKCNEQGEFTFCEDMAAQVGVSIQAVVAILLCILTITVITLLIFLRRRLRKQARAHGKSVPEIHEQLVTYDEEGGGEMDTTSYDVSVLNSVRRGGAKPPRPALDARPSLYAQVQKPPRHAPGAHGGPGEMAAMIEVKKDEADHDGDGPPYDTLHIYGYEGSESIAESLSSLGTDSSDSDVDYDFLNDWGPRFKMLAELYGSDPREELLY", "assay": "co-IP; IP with VE-cadherin antibody from HBMEC lysates, Western blot for α-catenin and β-catenin; cells under hypoxia plus IL-1β for 24 hours with rhTIMP2, rhAlaTIMP2 or PBS; also cells transfected with WT, Y419D or Y419A Src", "details": "remark: other sources report otherwise", "note": "Results are given in words; binding and its absence hold for the method and conditions named. Binding seen in cells or lysates may run through a third protein. Some binding calls cover weakened binding; strength is not graded here.", "data": [{"binder": "B1", "values": [{"measurement": "binding", "value": "binds"}]}]}
